Measured values: the supplement of paper PMC10849652
Some of the results follow.

Chains of the proteins cited; added tags and fusions are not shown. Lines headed by an entry give the natural chain unless they say otherwise; changes in a name come on top.
UniProt O43852: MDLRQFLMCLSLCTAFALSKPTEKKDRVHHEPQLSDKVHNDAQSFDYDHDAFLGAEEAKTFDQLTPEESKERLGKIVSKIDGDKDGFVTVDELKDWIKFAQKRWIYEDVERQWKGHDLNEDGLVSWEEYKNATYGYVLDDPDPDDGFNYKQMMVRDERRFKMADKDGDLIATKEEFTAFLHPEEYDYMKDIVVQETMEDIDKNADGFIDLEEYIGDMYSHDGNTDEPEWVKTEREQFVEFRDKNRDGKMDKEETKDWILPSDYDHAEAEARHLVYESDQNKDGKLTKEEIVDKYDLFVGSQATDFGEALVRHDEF
UniProt Q9Y297: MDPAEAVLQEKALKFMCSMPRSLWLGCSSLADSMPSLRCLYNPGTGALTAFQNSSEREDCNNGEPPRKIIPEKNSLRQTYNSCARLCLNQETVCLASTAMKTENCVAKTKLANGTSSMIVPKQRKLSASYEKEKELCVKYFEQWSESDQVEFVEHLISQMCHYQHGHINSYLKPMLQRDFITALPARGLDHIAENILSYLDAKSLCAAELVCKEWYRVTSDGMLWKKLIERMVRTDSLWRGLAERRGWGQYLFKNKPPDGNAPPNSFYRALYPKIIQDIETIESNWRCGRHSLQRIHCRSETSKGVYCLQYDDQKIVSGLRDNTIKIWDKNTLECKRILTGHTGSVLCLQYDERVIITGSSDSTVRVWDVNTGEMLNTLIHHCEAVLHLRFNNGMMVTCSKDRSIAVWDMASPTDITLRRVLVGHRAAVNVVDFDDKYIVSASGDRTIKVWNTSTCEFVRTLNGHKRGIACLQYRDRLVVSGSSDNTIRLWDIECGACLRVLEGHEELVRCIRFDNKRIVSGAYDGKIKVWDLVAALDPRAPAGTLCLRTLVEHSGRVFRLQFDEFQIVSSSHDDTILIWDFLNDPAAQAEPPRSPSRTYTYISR
UniProt Q32NC0: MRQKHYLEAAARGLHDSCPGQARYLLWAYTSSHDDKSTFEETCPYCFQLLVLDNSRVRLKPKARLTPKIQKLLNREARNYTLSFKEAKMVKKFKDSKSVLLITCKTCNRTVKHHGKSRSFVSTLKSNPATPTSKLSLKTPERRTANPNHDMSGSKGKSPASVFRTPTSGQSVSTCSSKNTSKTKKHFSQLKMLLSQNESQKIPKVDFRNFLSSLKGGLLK

Legend:
Assay in all cases: log2 fold change, soluble protein after heating vs DMSO (PISA); higher = thermal stabilisation; K562 lysate, 10 uM; active = over 0.2 and 3.5 SD of the protein, either way, in both replicates (recomputed)
[1] = compound: NCC(=O)Nc1ccc(-n2nc(C(F)(F)F)cc2-c2ccc3c(ccc4ccccc43)c2)cc1
Method in brief: (§1)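 A 30 min treatment with 10 μM compound was applied to crude K562 extract at 1 mg/mL protein in PBS pH 7.4 with 1 mM MgCl2. Heating for 3 min spanned 48°C-58°C, after which aliquots were pooled, adjusted to 0.5% NP-40 at 4°C and spun at 21,000xg for 90 min. TMTpro 16plex LC-MS/MS of the supernatant, with channel sums equalised, gave values recorded as log-two fold change in thermal stability against solvent controls, from duplicates.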

vorinostat = compound: O=C(CCCCCCC(=O)Nc1ccccc1)NO [vorinostat]
Method in brief: as §1

silmitasertib = compound: O=C(O)c1ccc2c(c1)nc(Nc1cccc(Cl)c1)c1ccncc12 [silmitasertib]
Method in brief: as §1

[2] = compound: O=C1NC(=O)C(c2cnc3ccccn23)=C1c1cn2c3c(cc(F)cc13)CN(C(=O)N1CCCCC1)CC2
Method in brief: as §1

entospletinib = compound: c1cn2cc(-c3ccc4cn[nH]c4c3)nc(Nc3ccc(N4CCOCC4)cc3)c2n1 [entospletinib]
Method in brief: as §1

Measured: log2 fold change

CALU isoform 4 (UniProt O43852)
inactive: [1] 0.008 | vorinostat 0.12 | silmitasertib 0.015 | [2] -0.017 | entospletinib 0.025

BTRC (UniProt Q9Y297)
active: vorinostat -0.342
inactive: [1] 0.03 | silmitasertib 0.035 | entospletinib -0.004

C18orf21 (UniProt Q32NC0)
inactive: vorinostat -0.039 | silmitasertib -0.045 | [2] 0.093
